Reference: patent US20170304457A1 (MIT, published 2017)

T1: importin β (UniProt Q06142 1-861)
T1 construct: Nuclear transport receptor used at 5 µM in the capillary transport assay; The His tag was not removed; TEV cleavage is told only for the two cargo proteins; also called scImpβ; scImp β; not shown: 6xHis tag (scImpβ-His6)
T1 sequence (looked up): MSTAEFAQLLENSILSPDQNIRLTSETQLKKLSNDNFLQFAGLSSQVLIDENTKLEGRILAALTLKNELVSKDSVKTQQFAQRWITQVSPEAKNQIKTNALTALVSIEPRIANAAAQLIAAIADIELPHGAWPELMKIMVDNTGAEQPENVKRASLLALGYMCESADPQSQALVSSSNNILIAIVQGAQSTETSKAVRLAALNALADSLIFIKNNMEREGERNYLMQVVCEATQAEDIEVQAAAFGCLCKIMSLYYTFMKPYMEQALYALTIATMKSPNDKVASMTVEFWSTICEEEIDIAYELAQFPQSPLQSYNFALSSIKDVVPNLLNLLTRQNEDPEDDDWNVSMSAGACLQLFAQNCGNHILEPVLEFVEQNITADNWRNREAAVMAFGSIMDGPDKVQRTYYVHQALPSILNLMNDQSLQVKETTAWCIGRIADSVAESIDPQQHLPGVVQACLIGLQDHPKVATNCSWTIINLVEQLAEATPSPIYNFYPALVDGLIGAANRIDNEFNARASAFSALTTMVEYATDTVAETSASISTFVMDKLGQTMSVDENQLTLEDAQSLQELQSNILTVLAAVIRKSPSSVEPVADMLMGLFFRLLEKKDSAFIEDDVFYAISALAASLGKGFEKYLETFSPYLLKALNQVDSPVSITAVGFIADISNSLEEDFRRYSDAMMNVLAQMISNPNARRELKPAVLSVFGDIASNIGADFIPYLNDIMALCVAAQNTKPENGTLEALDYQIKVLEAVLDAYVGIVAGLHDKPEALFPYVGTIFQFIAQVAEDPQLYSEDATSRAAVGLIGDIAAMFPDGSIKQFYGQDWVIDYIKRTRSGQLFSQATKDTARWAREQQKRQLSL


Target: T1, importin β
Experiment: capillary transport assay, discontinuous concentration profile at the gel/buffer interface, 20 w/v % hydrogel
Experimental: 1.5 inch borosilicate capillaries with 0.9 mm inner diameters (Vitrocom 8290) were loaded by piercing pre-made hydrogels. 5 μM solutions of IBB-MBP-EGFP, MBP-mCherry, and/or importin β were injected into the capillary and sealed by a 1:1:1 mixture of vaseline, lanolin, and paraffin. Time lapses of cargo transport into the hydrogels were taken at 1 minute intervals for 1-3 hours on a Nikon Ti Eclipse inverted microscope using a Nikon CFI Plan UW 2× and Hamamatsu C11440-22CU camera. All fluorescence intensity profiles were obtained by averaging the fluorescence intensity within 100 μm slice width through the center of the gel and across the gel/buffer interface. The profiles were normalized by the bath concentration in the capillaries at the first time point. The interface between gel and buffer is assigned by a 20% change in the intensity compared to the bath fluorescence intensity as the zero point of the distance scale in each fluorescence intensity profile.

Binder	binding result
P-cNsp1-P (other, Used as a 20 w/v % hydrogel crosslinked by pentameric association of the P domains; also called P-cNsp1-P-His6; P-cNspI-P) MDIGINSDPAPQMLRELQETNAALQDVRELLRQQVKEITFLKNTVMESDASGASDNKTTNTTPSFSFGAKSDENKAGATSKPAFSFGAKPEEKKDDNSSKPAFSFGAKSNEDKQDGTAKPAFSFGAKPAEKNNNETSKPAFSFGAKSDEKKDGDASKPAFSFGAKPDENKASATSKPAFSFGAKPEEKKDDNSSKPAFSFGAKSNEDKQDGTAKPAFSFGAKPAEKNNNETSKPAFSFGAKSDEKKDGDASKPAFSFGAKSDEKKDSDSSKPAFSFGTKSNEKKDSGSSKPAFSFGAKPDEKKNDEVSKPAFSFGAKANEKKESDESKSAFSFGSKPTGKEEGDGAKAAISFGAKPEEQKSSDTSKPAFTFGTSAPQMLRELQETNAALQDVRELLRQQVKEITFLKNTVMESDASGKLAAALEHHHHHH	binds
P-1NLP-P (other, Used as a 20 w/v % hydrogel) MDIGINSDPAPQMLRELQETNAALQDVRELLRQQVKEITFLKNTVMESDASGASPAFSFGAKPDEKKDDDTSKPAFSFGAKPDEKKDDDTSKPAFSFGAKPDEKKDDDTSKPAFSFGAKPDEKKDDDTSKPAFSFGAKPDEKKDDDTSKPAFSFGAKPDEKKDDDTSKPAFSFGAKPDEKKDDDTSKPAFSFGAKPDEKKDDDTSKTSPAFSFGAKPDEKKDDDTSKPAFSFGAKPDEKKDDDTSKPAFSFGAKPDEKKDDDTSKPAFSFGAKPDEKKDDDTSKPAFSFGAKPDEKKDDDTSKPAFSFGAKPDEKKDDDTSKPAFSFGAKPDEKKDDDTSKPAFSFGAKPDEKKDDDTSKTSAPQMLRELQETNAALQDVRELLRQQVKEITFLKNTVMESDASGGKLAAALEHHHHHH	binds
P-2NLP-P (other) MDIGINSDPAPQMLRELQETNAALQDVRELLRQQVKEITFLKNTVMESDASGASPAFSFGAKPDEKKDSDTSKPAFSFGAKPDEKKDSDTSKPAFSFGAKPDEKKDSDTSKPAFSFGAKPDEKKDSDTSKPAFSFGAKPDEKKDSDTSKPAFSFGAKPDEKKDSDTSKPAFSFGAKPDEKKDSDTSKPAFSFGAKPDEKKDSDTSKTSPAFSFGAKPDEKKDSDTSKPAFSFGAKPDEKKDSDTSKPAFSFGAKPDEKKDSDTSKPAFSFGAKPDEKKDSDTSKPAFSFGAKPDEKKDSDTSKPAFSFGAKPDEKKDSDTSKPAFSFGAKPDEKKDSDTSKPAFSFGAKPDEKKDSDTSKTSAPQMLRELQETNAALQDVRELLRQQVKEITFLKNTVMESDASGGKLAAALEHHHHHH	binds
